Earlier results in patent US20060074100A1, “Histone deacetylase inhibitors for the treatment of ocular neovascular or edematous disorders and diseases” (priority 2002, published 2006).

System: VEGF-induced neovascularization

Q: Which “inhibition of VEGF-induced neovascularization” value does the source give for `O=C(CCCCCCC(=O)Nc1ccccc1)NO` [SAHA, suberoylanilide hydroxamic acid] here?
A: can inhibit VEGF-induced neovascularization
